The other results are listed elsewhere or left out.

Amino acid sequences for entries named in this document (tags omitted). A change or cut given only in a name is not applied to a line headed by its entry.
UniProt Q9C0F1: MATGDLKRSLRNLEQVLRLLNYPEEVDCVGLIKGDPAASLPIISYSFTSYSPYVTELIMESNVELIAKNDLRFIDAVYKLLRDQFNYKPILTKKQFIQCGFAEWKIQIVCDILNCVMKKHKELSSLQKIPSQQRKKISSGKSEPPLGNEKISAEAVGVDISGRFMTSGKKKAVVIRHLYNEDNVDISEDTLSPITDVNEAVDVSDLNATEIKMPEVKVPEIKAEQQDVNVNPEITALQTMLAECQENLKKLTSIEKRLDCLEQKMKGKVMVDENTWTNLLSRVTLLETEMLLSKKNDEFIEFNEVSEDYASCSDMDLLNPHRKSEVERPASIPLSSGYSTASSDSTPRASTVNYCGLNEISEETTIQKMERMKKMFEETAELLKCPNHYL
UniProt Q9Y232: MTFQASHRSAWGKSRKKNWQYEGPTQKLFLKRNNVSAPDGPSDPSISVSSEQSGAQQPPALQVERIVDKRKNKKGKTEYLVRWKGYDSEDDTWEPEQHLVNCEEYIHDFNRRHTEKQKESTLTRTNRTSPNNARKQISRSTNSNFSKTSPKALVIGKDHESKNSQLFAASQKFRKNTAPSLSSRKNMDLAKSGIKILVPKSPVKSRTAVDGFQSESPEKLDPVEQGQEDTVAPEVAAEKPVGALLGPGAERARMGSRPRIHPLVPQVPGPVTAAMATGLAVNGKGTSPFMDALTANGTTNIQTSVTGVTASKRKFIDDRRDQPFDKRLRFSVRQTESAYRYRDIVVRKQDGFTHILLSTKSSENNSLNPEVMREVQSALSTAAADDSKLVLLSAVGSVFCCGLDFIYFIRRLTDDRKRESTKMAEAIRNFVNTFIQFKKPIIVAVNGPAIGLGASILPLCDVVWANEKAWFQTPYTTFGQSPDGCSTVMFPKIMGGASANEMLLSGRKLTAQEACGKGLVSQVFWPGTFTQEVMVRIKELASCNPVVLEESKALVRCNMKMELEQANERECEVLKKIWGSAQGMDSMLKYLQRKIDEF
UniProt Q9BV73: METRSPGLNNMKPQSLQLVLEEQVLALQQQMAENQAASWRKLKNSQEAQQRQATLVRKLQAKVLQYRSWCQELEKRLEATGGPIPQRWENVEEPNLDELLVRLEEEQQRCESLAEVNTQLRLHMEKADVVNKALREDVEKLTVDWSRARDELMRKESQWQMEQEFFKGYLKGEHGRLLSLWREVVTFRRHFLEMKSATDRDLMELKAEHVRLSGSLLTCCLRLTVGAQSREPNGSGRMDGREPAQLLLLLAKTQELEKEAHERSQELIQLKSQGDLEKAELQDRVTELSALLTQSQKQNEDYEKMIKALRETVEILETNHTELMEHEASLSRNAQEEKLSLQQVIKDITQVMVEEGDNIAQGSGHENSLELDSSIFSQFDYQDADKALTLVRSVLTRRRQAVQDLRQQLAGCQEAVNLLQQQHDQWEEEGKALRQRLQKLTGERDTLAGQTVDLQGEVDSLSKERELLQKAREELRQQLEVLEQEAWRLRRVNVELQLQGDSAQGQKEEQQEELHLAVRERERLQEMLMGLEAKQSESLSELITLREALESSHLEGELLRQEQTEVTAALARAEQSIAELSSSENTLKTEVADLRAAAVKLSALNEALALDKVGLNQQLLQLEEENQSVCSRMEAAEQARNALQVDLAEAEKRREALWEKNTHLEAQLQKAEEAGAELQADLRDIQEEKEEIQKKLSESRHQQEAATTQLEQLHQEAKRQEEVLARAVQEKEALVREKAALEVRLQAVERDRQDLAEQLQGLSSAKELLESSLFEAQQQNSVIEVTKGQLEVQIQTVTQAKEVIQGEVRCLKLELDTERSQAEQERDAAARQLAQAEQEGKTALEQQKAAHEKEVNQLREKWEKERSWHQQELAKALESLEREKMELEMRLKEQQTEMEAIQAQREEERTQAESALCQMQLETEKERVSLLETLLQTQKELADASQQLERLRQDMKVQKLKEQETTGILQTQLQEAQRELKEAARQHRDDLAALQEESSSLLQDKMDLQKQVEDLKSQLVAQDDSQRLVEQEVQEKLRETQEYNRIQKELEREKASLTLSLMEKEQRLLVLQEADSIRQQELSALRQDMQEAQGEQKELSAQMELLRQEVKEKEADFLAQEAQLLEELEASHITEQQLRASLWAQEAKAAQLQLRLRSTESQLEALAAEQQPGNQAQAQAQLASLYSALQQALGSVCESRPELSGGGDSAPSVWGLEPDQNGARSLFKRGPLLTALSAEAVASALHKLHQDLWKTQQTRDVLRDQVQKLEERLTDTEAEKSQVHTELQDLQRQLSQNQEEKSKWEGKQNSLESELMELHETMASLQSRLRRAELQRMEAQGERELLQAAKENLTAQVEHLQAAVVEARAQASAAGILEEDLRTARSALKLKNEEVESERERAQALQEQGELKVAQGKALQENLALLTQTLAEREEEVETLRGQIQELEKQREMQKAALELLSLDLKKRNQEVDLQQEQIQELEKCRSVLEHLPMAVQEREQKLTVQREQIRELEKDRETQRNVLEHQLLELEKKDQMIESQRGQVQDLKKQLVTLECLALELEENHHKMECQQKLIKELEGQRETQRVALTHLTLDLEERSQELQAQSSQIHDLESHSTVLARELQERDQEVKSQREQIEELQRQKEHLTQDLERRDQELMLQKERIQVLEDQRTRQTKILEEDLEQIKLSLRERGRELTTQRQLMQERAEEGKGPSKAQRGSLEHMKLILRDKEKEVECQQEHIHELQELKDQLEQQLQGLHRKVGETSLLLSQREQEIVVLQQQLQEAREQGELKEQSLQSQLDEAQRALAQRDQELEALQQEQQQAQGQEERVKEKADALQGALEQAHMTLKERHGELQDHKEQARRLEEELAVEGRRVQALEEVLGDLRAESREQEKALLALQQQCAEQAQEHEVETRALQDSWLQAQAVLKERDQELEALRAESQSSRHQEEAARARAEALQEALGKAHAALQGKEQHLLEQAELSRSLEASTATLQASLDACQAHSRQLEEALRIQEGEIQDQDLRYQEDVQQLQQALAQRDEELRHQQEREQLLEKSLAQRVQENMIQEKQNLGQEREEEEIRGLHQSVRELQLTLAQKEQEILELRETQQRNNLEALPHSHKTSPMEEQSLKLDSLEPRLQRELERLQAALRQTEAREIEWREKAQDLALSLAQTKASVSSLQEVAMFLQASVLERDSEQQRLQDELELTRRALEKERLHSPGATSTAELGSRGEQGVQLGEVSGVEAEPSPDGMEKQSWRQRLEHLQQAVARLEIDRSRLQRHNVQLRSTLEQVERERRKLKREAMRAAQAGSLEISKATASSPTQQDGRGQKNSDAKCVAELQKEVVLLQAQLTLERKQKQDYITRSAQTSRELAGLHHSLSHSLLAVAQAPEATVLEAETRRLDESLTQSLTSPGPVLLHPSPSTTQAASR
UniProt Q13112, whole entry, looked up: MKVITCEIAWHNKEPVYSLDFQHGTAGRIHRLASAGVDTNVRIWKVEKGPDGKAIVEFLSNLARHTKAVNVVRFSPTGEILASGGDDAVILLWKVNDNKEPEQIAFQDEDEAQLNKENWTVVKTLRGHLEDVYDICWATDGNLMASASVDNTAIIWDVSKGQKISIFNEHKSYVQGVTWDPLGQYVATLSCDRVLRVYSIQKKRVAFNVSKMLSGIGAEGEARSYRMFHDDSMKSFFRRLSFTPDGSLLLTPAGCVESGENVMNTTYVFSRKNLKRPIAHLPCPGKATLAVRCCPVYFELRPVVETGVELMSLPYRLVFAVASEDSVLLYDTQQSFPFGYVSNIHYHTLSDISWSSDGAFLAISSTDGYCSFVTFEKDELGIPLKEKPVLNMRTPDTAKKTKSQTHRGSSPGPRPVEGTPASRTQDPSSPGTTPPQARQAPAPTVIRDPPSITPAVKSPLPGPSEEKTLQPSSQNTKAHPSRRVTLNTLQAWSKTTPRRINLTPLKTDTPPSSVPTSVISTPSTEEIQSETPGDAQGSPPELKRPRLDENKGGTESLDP
UniProt P42773: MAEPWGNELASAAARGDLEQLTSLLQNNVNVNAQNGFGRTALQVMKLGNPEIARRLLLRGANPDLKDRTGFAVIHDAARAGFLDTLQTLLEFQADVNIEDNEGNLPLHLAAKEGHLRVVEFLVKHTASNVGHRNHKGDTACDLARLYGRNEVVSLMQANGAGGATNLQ
UniProt Q9Y6A4: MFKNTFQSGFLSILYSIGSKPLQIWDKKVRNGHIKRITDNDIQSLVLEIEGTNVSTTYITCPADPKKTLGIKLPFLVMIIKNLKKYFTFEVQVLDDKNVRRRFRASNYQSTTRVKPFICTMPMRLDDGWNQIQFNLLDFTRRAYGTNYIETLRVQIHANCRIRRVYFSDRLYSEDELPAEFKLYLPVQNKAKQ
UniProt Q99618: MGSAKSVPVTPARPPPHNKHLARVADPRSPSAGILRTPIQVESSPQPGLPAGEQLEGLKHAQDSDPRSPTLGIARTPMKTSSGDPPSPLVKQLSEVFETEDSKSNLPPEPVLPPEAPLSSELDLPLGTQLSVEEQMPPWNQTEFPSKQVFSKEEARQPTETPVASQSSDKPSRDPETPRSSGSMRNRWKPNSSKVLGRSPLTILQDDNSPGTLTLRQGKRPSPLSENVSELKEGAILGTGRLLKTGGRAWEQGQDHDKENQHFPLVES
UniProt O95674: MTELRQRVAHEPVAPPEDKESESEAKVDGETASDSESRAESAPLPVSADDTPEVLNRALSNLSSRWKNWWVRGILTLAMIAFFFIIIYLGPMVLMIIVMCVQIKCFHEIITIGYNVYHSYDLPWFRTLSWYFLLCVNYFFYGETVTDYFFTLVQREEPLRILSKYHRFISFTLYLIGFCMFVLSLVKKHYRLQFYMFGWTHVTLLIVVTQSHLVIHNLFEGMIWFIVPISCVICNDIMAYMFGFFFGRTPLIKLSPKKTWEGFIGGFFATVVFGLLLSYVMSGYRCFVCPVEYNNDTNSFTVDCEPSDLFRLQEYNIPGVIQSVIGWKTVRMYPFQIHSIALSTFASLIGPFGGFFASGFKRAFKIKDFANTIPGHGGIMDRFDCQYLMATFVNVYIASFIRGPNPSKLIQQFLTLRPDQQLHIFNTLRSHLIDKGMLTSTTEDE
UniProt Q7LBR1: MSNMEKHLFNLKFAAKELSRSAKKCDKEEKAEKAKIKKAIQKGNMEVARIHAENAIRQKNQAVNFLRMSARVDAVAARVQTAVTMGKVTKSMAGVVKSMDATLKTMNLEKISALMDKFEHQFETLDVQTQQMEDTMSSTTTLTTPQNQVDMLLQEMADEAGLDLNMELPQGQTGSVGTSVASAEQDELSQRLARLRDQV
UniProt Q9BUK0: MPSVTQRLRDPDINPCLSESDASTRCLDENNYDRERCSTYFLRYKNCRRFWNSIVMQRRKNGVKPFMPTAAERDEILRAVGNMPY
UniProt Q9Y259: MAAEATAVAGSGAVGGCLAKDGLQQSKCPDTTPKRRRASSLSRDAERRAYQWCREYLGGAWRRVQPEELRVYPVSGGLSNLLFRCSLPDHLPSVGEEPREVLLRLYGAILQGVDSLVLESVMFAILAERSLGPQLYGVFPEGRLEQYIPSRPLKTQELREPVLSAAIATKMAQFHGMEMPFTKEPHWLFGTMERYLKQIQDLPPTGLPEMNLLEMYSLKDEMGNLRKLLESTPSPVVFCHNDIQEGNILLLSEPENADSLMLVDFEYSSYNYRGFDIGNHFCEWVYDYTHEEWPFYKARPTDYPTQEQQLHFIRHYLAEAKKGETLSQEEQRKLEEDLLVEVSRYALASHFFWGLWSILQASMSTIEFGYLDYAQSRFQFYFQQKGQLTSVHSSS
UniProt Q9HD42: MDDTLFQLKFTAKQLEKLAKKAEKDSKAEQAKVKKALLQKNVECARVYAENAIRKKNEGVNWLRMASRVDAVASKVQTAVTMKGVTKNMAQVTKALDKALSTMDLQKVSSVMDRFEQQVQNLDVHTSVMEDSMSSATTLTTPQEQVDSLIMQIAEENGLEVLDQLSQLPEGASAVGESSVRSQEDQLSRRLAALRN
UniProt P26374: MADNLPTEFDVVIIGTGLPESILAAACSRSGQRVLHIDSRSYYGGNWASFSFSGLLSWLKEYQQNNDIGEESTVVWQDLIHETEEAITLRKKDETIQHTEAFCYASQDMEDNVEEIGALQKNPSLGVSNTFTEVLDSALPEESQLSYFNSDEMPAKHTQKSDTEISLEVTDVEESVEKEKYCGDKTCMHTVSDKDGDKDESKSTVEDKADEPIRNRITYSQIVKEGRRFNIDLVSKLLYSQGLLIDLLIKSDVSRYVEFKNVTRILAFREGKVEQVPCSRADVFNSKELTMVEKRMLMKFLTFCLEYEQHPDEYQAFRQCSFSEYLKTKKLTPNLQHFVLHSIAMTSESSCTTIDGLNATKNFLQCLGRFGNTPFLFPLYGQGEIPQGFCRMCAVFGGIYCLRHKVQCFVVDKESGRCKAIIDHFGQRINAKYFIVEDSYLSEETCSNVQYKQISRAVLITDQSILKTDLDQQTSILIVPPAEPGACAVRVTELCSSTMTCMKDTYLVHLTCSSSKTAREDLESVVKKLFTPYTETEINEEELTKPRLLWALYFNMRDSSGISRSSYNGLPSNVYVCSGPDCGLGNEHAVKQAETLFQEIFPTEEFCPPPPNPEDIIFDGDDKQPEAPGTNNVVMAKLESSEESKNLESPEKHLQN

Compound in the first test: CN1CCN(CCOc2cc(OC3CCOCC3)c3c(Nc4c(Cl)ccc5c4OCO5)ncnc3c2)CC1 [saracatinib]
The test can be described thus: log2 fold change, soluble protein after heating vs DMSO (PISA); higher = thermal stabilisation; K562 cells, 10 uM, 30 min; active = over 0.2 and 3.5 SD of the protein, either way, in both replicates (recomputed). The method, boiled down: (§1)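 For each measurement, 10 μM compound was applied for 30 min to K562 cells at 2×10^6 cells/mL. Aliquots were heated for 3 min across 48°C-58°C, pooled, and extracted in PBS with 0.5% NP-40 at 4°C; the supernatant after 21,000xg for 90 min was soluble protein. This was quantified by TMTpro 16plex LC-MS/MS with channel sums equalised, and thermal stability was reported relative to control samples from duplicates, on a log2 fold-change scale.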
For CEP44 (UniProt Q9C0F1), the log2 fold change is inactive: 0.147.
Still for that read-out and setting: with CDYL (UniProt Q9Y232) the figure was inactive: -0.007; with CFH (UniProt P08603), inactive: 0.049; with CHD6 (UniProt Q8TD26), inactive: 0.411.
For CFL1 (UniProt P23528), the log2 fold change is inactive: 0.075.
Still for that read-out and setting: with CDCA5 (UniProt Q96FF9) the figure was inactive: -0.033.
In the case of CHD5 (UniProt Q8TDI0), the log2 fold change was inactive: -0.05.
As for CEP250 (UniProt Q9BV73), the log2 fold change is inactive: 0.041.
As to CHMP2A (UniProt O43633), the log2 fold change is inactive: 0.062.
On the same count and under the same terms, with CHAF1B (UniProt Q13112) the figure was inactive: 0.011; with CHM (UniProt P24386), inactive: 0.116; with CENPH (UniProt Q9H3R5), inactive: -0.147.
Still for that read-out and setting: the value for CDKN2C (UniProt P42773) was inactive: -0.083; that for CELF1 isoform 4 (UniProt Q92879) was inactive: -0.002; that for CDIPT (UniProt O14735) was inactive: -0.013.
Still for that read-out and setting: with CFAP20 (UniProt Q9Y6A4) the figure was inactive: -0.054.
With CDC42EP4 (UniProt Q9H3Q1), the log2 fold change was inactive: 0.108.
On the same count and under the same terms, with CDK19 (UniProt Q9BWU1) the figure was inactive: 0.006; with CENPF (UniProt P49454), inactive: 0.029.
The same measure, in the same setting: the value for CERS6 isoform 2 (UniProt Q6ZMG9) was inactive: 0.033; that for CHEK2 isoform 9 (UniProt O96017) was inactive: 0.037.
Take CDC42BPA isoform 6 (UniProt Q5VT25): the log2 fold change was inactive: -0.093.
Still for that read-out and setting: the value for CEP97 isoform 2 (UniProt Q8IW35) was inactive: -0.053; that for CDK9 isoform 2 (UniProt P50750) was inactive: -0.028.
In the case of CENPO (UniProt Q9BU64), the log2 fold change is inactive: -0.258.
Still for that read-out and setting: the value for CDCA3 (UniProt Q99618) was inactive: -0.033; that for CDS2 (UniProt O95674) was inactive: 0.04.
On the same count and under the same terms, with CEP192 (UniProt Q8TEP8) the figure was inactive: -0.011; with CHMP1B (UniProt Q7LBR1), inactive: 0.02.
Still for that read-out and setting: with CHCHD7 isoform 4 (UniProt Q9BUK0) the figure was inactive: -0.029; with CFL2 (UniProt Q9Y281), inactive: 0.092; with CDKAL1 (UniProt Q5VV42), inactive: -0.082.
CEP170 (UniProt Q5SW79): the log2 fold change was inactive: -0.035.
Consider CHCHD3 (UniProt Q9NX63), for which the log2 fold change was inactive: -0.009.
Turning to CFAP298 (UniProt P57076), the log2 fold change is inactive: -0.238.
Still for that read-out and setting: the value for CHKB (UniProt Q9Y259) was inactive: 0.066; that for CHMP1A (UniProt Q9HD42) was inactive: 0.031; that for CHML (UniProt P26374) was inactive: 0.

Compound in another test: CN1CCN(c2nc(C3=C(c4c[nH]c5ccccc45)C(=O)NC3=O)c3ccccc3n2)CC1 [sotrastaurin]
Described as above. In short, it runs like this: as §1
Turning to CEP44 (UniProt Q9C0F1), the log2 fold change is inactive: -0.176.
Still for that read-out and setting: the value for CDYL (UniProt Q9Y232) was inactive: 0.014.
For the target CFH (UniProt P08603), the log2 fold change was inactive: 0.002.
Still for that read-out and setting: the value for CHD6 (UniProt Q8TD26) was inactive: 0.353; that for CFL1 (UniProt P23528) was inactive: -0.026; that for CDCA5 (UniProt Q96FF9) was inactive: -0.091.
Same read-out and setting: with CHD5 (UniProt Q8TDI0) the figure was inactive: -0.369.
The same measure, in the same setting: with CEP250 (UniProt Q9BV73) the figure was inactive: -0.062; with CHMP2A (UniProt O43633), inactive: 0.011.
As for CHAF1B (UniProt Q13112), the log2 fold change is inactive: 0.007.
The same measure, in the same setting: the value for CHM (UniProt P24386) was inactive: -0.001.
On the same count and under the same terms, the value for CENPH (UniProt Q9H3R5) was inactive: -0.055; that for CDKN2C (UniProt P42773) was inactive: -0.013; that for CELF1 isoform 4 (UniProt Q92879) was inactive: -0.103.
Still for that read-out and setting: the value for CDIPT (UniProt O14735) was inactive: 0.218; that for CFAP20 (UniProt Q9Y6A4) was inactive: 0.029; that for CDC42EP4 (UniProt Q9H3Q1) was inactive: -0.057.
Take CDK19 (UniProt Q9BWU1): the log2 fold change is inactive: 0.035.
Same read-out and setting: with CENPF (UniProt P49454) the figure was inactive: -0.098; with CERS6 isoform 2 (UniProt Q6ZMG9), inactive: 0.07; with CHEK2 isoform 9 (UniProt O96017), inactive: 0.035.
As to CDC42BPA isoform 6 (UniProt Q5VT25), the log2 fold change was active: -0.47.
On the same count and under the same terms, with CEP97 isoform 2 (UniProt Q8IW35) the figure was inactive: -0.057; with CDK9 isoform 2 (UniProt P50750), inactive: -0.018; with CENPO (UniProt Q9BU64), inactive: -0.098.
On the same count and under the same terms, the value for CDCA3 (UniProt Q99618) was inactive: 0.072; that for CDS2 (UniProt O95674) was inactive: 0.091; that for CEP192 (UniProt Q8TEP8) was inactive: 0.14.
In the case of CHMP1B (UniProt Q7LBR1), the log2 fold change was inactive: -0.005.
The same measure, in the same setting: with CHCHD7 isoform 4 (UniProt Q9BUK0) the figure was inactive: 0.034; with CFL2 (UniProt Q9Y281), inactive: 0.021; with CDKAL1 (UniProt Q5VV42), inactive: 0.025.
On the same count and under the same terms, the value for CEP170 (UniProt Q5SW79) was inactive: -0.022; that for CHCHD3 (UniProt Q9NX63) was inactive: 0.024; that for CFAP298 (UniProt P57076) was inactive: -0.038.
On the same count and under the same terms, with CHKB (UniProt Q9Y259) the figure was inactive: 0.031.
Regarding CHMP1A (UniProt Q9HD42), the log2 fold change was inactive: 0.005.
On the same count and under the same terms, with CHML (UniProt P26374) the figure was inactive: 0.035.

The values are drawn from the supplement of paper PMC10849652.
